No constants are given. Whether binding was seen depends on the method and setting. Binding seen in cells or lysates may run through a third protein. Binding calls can cover weak binding; strength is not graded here. Sequences can lack the tags named with a protein.
Target: Myc-tagged ITCH
Test: co-IP; HEK293T cells co-transfected with Flag-DUB3 and Myc-ITCH, 5 uM MG132 overnight, lysed in PLC buffer; immunoprecipitation with anti-Flag or anti-Myc beads, 2 hours at 4°C; blots with anti-Flag and anti-Myc

binding: binds
B1: Flag-tagged DUB3 (USP17L17 isoform of DUB3) (enzyme, UniProt D6RBQ6 1-530)
chain: MEDDSLYLGGEWQFNHFSKLTSSRPDAAFAEIQRTSLPEKSPLSCETRVDLCDDLAPVARQLAPREKLPLSSRRPAAVGAGLQNMGNTCYVNASLQCLTYTPPLANYMLSREHSQTCHRHKGCMLCTMQAHITRALHNPGHVIQPSQALAAGFHRGKQEDAHEFLMFTVDAMKKACLPGHKQVDHHSKDTTLIHQIFGGYWRSQIKCLHCHGISDTFDPYLDIALDIQAAQSVQQALEQLVKPEELNGENAYHCGVCLQRAPASKTLTLHTSAKVLILVLKRFSDVTGNKIAKNVQYPECLDMQPYMSQQNTGPLVYVLYAVLVHAGWSCHNGHYFSYVKAQEGQWYKMDDAEVTAASITSVLSQQAYVLFYIQKSEWERHSESVSRGREPRALGAEDTDRRATQGELKRDHPCLQAPELDEHLVERATQESTLDHWKFLQEQNKTKPEFNVRKVEGTLPPDVLVIHQSKYKCGMKNHHPEQQSSLLNLSSSTPTHQESMNTGTLASLRGRARRSKGKNKHSKRALLVCQ

— publication PMC5218808
